Assay results from PubChem BioAssay (EPA / NIEHS).
Several values for one entry are separate records, joined by “and”; a condition that tells them apart may be missing. Identical values can stand only once. Inconclusive means that the source gave no clear call. Such entries were picked first, then a sample of the others. A potency beside an inconclusive call is a rough fit, not a confirmed value. Activity calls are given as the source filed them. Rule for the calls: active = hit-call score of the fitted dose curve at least 0.9, where 1 is the maximum; inconclusive = response in the unintended direction; inactive = score below 0.9.

Chains of the proteins cited; added tags and fusions are not shown. Lines headed by an entry give the natural chain unless they say otherwise; changes in a name come on top.
UniProt P37231: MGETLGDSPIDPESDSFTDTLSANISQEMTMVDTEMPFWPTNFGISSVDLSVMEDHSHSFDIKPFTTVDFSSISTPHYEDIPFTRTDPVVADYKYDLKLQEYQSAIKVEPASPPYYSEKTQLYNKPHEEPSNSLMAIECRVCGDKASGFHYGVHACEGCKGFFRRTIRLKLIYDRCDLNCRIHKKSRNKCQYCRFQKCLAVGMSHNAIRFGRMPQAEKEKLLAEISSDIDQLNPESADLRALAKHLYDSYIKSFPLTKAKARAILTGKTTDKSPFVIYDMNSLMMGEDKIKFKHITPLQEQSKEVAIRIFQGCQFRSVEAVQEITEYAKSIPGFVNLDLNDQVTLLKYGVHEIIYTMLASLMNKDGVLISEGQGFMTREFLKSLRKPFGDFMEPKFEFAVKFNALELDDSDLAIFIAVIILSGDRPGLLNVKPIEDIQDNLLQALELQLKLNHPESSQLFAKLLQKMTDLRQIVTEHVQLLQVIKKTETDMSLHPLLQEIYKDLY

biological target: Peroxisome proliferator-activated receptor gamma (Homo sapiens) (UniProt P37231); assay: OT_PPARg_PPARgSRC1_0480: Odyssey Thera (OT) 8-hour Protein-Complementation Assay for Peroxisome Proliferator-activated Receptor Gamma / SRC-1 Co-activator (AID 2283387);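 note: nuclear to cytoplasmic split Venus YFP fluorescence ratio reporting PPARg SRC-1 interaction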
Procedure, shortened: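 Protein-fragment complementation in HEK293T: Venus YFP halves (residues 1-158, 159-239, mutated to IFP1/IFP2) fused to PPARg/SRC-1. 8 h exposure; N/C ratio at 488 nm; DMSO negative control.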

SMILES | outcome | AC50
CC(C)CC(C)O (centres undefined) | inactive | –
CCCCC(CC)COC(=O)CCCCC(=O)OCC(CC)CCCC (centres undefined) | inactive | –

tested on: not listed separately; assay: TOX21_p53_BLA_p2_viability: Viability Assessment in the Tox21 HCT-116 p53 Agonism Beta-lactamase Assay, Phase 2 (AID 2283591);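 note: compound exposure lasted 16 h at 37 °C; actives lower the ATP signal meaning cytotoxicity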
Procedure, shortened: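 HCT-116 p53-bla cells (4000/well) rested 5 h at 37C, then received compounds in DMSO (217-fold dilution) for 16 h at 37C, 5% CO2. After the CCF4 read, CellTiter-Glo was added; ATP luminescence was read after 30 min at room temperature.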

SMILES | AC50 | outcome
NNC(=O)c1ccncc1 | inconclusive: 0.0515 µM | –
Fc1ccccc1[C@@H](F)COC1CCC(Nc2ncnc3[nH]ncc23)CC1 (some centres undefined) | – | inactive
CCCCC(CC)CO (centres undefined) | inconclusive: 46.1 µM and inconclusive: 45.6 µM | –
CCCCC(CC)COC(=O)CCCCC(=O)OCC(CC)CCCC (centres undefined) | inconclusive: 45.9 µM | –
CC1=C(/C=C/C(C)=C/C=C/C(C)=C/CO)C(C)(C)CCC1 | inconclusive: 23 µM | –
